Measured values taken from patent publication US20080193444A1.
Results are given in words; binding and its absence hold for the method and conditions named. In cells and extracts the contact can be indirect. Some binding calls cover weakened binding; strength is not graded here.

Chains of the proteins cited; added tags and fusions are not shown. Residues count along the entry.
UniProt P05556: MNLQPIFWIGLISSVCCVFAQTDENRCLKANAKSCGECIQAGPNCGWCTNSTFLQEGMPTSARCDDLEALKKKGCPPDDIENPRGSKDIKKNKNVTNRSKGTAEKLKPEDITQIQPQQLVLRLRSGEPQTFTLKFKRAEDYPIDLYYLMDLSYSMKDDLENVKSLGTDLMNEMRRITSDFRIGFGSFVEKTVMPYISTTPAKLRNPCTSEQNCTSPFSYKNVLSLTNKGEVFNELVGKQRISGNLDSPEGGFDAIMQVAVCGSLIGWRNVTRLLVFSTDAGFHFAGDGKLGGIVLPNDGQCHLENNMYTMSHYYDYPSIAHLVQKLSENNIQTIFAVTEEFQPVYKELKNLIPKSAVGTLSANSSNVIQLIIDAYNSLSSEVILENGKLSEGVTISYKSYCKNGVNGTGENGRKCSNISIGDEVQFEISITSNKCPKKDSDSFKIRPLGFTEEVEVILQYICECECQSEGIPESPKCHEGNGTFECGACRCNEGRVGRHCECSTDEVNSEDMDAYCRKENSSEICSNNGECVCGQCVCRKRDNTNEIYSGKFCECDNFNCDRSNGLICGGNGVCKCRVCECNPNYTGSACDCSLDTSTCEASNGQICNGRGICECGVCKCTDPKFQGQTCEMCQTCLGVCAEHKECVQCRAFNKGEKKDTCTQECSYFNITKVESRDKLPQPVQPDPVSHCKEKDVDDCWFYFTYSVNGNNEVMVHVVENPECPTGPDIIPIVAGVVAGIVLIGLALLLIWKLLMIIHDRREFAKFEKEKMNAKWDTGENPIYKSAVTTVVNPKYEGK
UniProt P06756, residues 31-1048: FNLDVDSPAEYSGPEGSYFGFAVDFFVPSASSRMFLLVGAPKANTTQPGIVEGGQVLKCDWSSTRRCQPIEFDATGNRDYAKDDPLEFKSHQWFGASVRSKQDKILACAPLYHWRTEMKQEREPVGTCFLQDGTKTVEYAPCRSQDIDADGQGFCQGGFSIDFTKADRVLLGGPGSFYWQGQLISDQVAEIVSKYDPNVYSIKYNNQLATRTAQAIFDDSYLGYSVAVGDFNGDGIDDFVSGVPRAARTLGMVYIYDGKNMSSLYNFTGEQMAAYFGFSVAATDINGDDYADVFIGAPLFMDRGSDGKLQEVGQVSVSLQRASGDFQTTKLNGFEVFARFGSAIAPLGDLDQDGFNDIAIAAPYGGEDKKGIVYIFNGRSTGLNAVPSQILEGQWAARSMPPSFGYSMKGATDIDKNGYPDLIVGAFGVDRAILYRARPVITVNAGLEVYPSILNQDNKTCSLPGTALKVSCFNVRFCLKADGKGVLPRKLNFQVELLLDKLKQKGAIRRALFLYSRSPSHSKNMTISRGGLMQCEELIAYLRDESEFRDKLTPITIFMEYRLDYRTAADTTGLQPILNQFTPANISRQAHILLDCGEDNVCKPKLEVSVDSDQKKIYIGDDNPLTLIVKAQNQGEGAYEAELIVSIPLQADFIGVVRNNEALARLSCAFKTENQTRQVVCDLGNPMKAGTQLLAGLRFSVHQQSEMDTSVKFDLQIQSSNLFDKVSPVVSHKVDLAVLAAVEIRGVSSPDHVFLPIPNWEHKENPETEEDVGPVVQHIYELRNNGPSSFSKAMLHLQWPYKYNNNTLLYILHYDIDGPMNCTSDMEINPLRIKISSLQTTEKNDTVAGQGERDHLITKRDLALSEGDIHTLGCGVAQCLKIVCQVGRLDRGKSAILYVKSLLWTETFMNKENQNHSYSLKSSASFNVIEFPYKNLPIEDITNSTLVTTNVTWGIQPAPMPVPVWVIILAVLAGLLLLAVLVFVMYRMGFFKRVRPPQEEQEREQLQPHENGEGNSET

Molecular target: β1 integrin (human) (UniProt P05556)
Assay: co-immunoprecipitation from HCC lysates with a β1 antibody, Western blot for αv

binding: binds
Substance: αv integrin (from UniProt P06756 31-1048) (receptor)
